Measured values from patent US7067500B2, “Betaines as adjuvants to susceptibility testing and antimicrobial therapy” (priority 1997, dated 2006).
Structures can show the parent of a compound that is named as a salt.

System: Mycobacteria (acid fast bacilli: AFB)
Assay: CB-18 Pilot Study: smear analysis of processed respiratory specimens
[1] = each processing method evaluated independently, smear± included

CCCCCCCCCCCCCCCCCC[N+](C)(C)CCCC(=O)[O-] [CB-18, N-(3-carboxypropyl)-N,N-dimethyl-1-octadecanaminium, inner salt]
increase in smear sensitivity (CB-18 relative to NaOH): approximately 58% | specificity of smear analysis (analysis of Table 4, smear± without confirming culture not counted): 96.8% | Smear: Sensitivity [1]: 62.9% | Smear: Specificity [1]: 91.2%
